{"source": "patent US20030055101A1", "about": "“Use of statins to inhibit formation of osteoclasts” (priority 2001, published 2003)", "origin": "cited, not measured here", "tested_on": "osteoclasts", "conditions": "rodents; cited from earlier work", "note": "For at least one compound, name, drawing or mass did not settle the structure."}
{"compound": "CCC(C)(C)C(=O)O[C@H]1C[C@@H](C)C=C2C=C[C@H](C)[C@H](CC[C@@H]3C[C@@H](O)CC(=O)O3)[C@H]21", "note": "[simvastatin]", "values": [{"measurement": "reduction in osteoclast number", "value": 25, "unit": "%"}]}
